Data reported in publication PMC11407766, “OsNF-YB7 inactivates OsGLK1 to inhibit chlorophyll biosynthesis in rice embryo”.
For at least one entry, the source does not settle the construct or the ends of the probe. Weaker means in comparison with the reference protein, sequence or condition of that experiment. Where a protein sequence is shown, tags need not be part of it.

Biological target: T1, OsGLK1-MBP (Oryza sativa) (UniProt Q5Z5I4)
T1 sequence (looked up): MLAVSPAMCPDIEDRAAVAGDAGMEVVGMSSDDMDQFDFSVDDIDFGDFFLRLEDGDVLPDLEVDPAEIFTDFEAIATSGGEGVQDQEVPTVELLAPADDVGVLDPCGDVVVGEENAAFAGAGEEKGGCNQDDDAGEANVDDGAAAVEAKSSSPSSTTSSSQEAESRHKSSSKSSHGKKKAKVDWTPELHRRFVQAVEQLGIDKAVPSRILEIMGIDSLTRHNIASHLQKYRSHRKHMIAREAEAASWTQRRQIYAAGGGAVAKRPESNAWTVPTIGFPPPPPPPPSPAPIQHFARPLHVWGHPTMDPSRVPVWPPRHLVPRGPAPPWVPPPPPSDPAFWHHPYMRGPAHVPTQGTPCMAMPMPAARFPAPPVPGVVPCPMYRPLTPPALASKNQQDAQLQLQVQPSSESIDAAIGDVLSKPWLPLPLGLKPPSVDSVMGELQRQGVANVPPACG
Experiment: EMSA
Conditions: with OsNF-YB7-His (2 or 4 uM proteins), inhibits OsGLK1 binding; Beyotime EMSA/Gel-Shift kit (GS009), manufacturer's conditions; 2 or 4 uM protein in Figure 6G; pH and temperature not stated; recombinant protein; residues 1-455; protein details: MBP (pMAL-c5X); label: biotin (3' hydroxyl end of both strands)

TACGAAAAAATATCCCACCACGTGTCGCTTTCACAGGACAAT (double strand) [OsPORA promoter probe]
binding result: binds more weakly
